Data as given in PubChem BioAssay AID743121 (NCATS, 2013).

Aim: 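Genes whose silencing strengthens cell killing by camptothecin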 (primary screen)
System: MDA-MB-231 cells, a human breast cancer line
Knock-down reagent: single siRNA against human genes, 20 nM siRNA (0.8 pmol per well)
Timing: 120 h (drug added 48 h after transfection, read 72 h later)
Challenge: camptothecin 20 nM (about EC30) for 72 h; vehicle 0.1% DMSO in parallel plates
Detection: 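Cell viability by ATP luminescence (CellTiter-Glo) as % of non-targeting siRNA wells, and the log2 ratio of viability without drug over viability with camptothecin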
Scale: log2 vehicle/camptothecin viability: higher = stronger sensitisation to camptothecin; viability with camptothecin and viability without drug: higher = more viable cells
Call rule: 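Active genes have an RSA gene-level p-value below 0.001, computed from the ratios of their separate siRNAs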
Here is one part, drawn at random, of about 26,000 reagents. Of all reagents, 167 (0.63%) got an active call. 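Calls are per gene from RSA p-values that are not deposited; an individual active-marked siRNA can sensitise only weakly.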 Entries without a mark were called inactive. The numbers tell different reagents against one gene apart.

no.	Gene	reagent	log2 vehicle/camptothecin viability	viability with camptothecin (% of control)	viability without drug (% of control)
1	PRSS16 (serine protease 16)	1	-0.394	115	87.6
2	PRSS16 (serine protease 16)	2	-0.169	105	93.5
3	PRSS16 (serine protease 16)	3	-0.0236	46.5	45.8
4	PRSS16 (serine protease 16)	4	-0.117	111	102
5	TRPV6	1	0.052	55.9	58
6	TRPV6	2	0.0972	98.3	105
7	TRPV6	3	-0.612	54.1	35.4
8	TRPV6	4	-0.0502	17.8	17.2
9	MANF (mesencephalic astrocyte derived neurotrophic factor)	1	-0.259	85.5	71.4
10	MANF (mesencephalic astrocyte derived neurotrophic factor)	2	0.363	29.6	38
11	MANF (mesencephalic astrocyte derived neurotrophic factor)	3	0.423	60	80.5
12	MANF (mesencephalic astrocyte derived neurotrophic factor)	4	-0.111	108	100
13	TYSND1 (trypsin like peroxisomal matrix peptidase 1)	1	-0.389	48.4	37
14	TYSND1 (trypsin like peroxisomal matrix peptidase 1)	2	-0.294	72.4	59
15	TYSND1 (trypsin like peroxisomal matrix peptidase 1)	3	-0.204	29.3	25.4
16	TYSND1 (trypsin like peroxisomal matrix peptidase 1)	4	-0.206	90	78
17	NDP (norrin cystine knot growth factor NDP)	1	0.155	81.2	90.4
18	NDP (norrin cystine knot growth factor NDP)	2	-0.321	85.1	68.1
19	NDP (norrin cystine knot growth factor NDP)	3	-0.265	114	95
20	NDP (norrin cystine knot growth factor NDP)	4	0.246	11.1	13.1
21	KAT6A (lysine acetyltransferase 6A)	1	-0.364	58.7	45.6
22	KAT6A (lysine acetyltransferase 6A)	2	-0.389	56.6	43.2
23	KAT6A (lysine acetyltransferase 6A)	3	0.43	75.1	101
24	KAT6A (lysine acetyltransferase 6A)	4	0.23	53.2	62.4
25	ARFIP2 (ARF interacting protein 2)	1	-0.0287	81.9	80.3
26	ARFIP2 (ARF interacting protein 2)	2	-0.165	87.9	78.4
27	ARFIP2 (ARF interacting protein 2)	3	0.188	87.9	100
28	ARFIP2 (ARF interacting protein 2)	4	0.128	15.9	17.4
29	SRPRB (SRP receptor subunit beta)	1	-0.216	85.7	73.8
30	SRPRB (SRP receptor subunit beta)	2	-0.53	88.4	61.3
31	SRPRB (SRP receptor subunit beta)	3	0.26	27.9	33.4
32	SRPRB (SRP receptor subunit beta)	4	-0.244	127	107
33	PELP1 (proline, glutamate and leucine rich protein 1)	1	-0.195	84.3	73.6
34	PELP1 (proline, glutamate and leucine rich protein 1)	2	-0.573	75.7	50.9
35	PELP1 (proline, glutamate and leucine rich protein 1)	3	-0.528	87.6	60.8
36	PELP1 (proline, glutamate and leucine rich protein 1)	4	-0.00803	43.5	43.2
37	BRCC3 (BRCA1/BRCA2-containing complex subunit 3)	1	1.18	28.8	65
38	BRCC3 (BRCA1/BRCA2-containing complex subunit 3)	2	0.178	88.6	100
39	BRCC3 (BRCA1/BRCA2-containing complex subunit 3)	3	-0.26	73.6	61.5
40	BRCC3 (BRCA1/BRCA2-containing complex subunit 3)	4	0.0782	89	94
41	HECTD1 (HECT domain E3 ubiquitin protein ligase 1)	1	0.234	45.3	53.3
42	HECTD1 (HECT domain E3 ubiquitin protein ligase 1)	2	-0.478	78.9	56.7
43	HECTD1 (HECT domain E3 ubiquitin protein ligase 1)	3	-0.0786	71.5	67.7
44	HECTD1 (HECT domain E3 ubiquitin protein ligase 1)	4	-0.0363	108	105
45	PKIB (cAMP-dependent protein kinase inhibitor beta)	1	-0.346	68	53.5
46	PKIB (cAMP-dependent protein kinase inhibitor beta)	2	-0.184	102	89.7
47	PKIB (cAMP-dependent protein kinase inhibitor beta)	3	-0.172	54	48
48	PKIB (cAMP-dependent protein kinase inhibitor beta)	4	0.203	15.9	18.3
